Data published in patent publication US20210395281A1, “MACROCYCLIC CHELATES AND USES THEREOF” (Fusion Pharmaceuticals Inc., priority 2020, published 2021).

Assay: Radiolabeling with ^89Zr, conversion by radioTLC
Format: physicochemical
Conditions: HEPES 0.5 M, 90° C., 1 h

Compound | Conversion (%) (^89Zr(ox)2) | Conversion (%) (^89ZrCl4)
O=C(O)CN1CCN(CC(=O)O)CCN(CC(=O)O)[C@@H](Cc2ccc([N+](=O)[O-])cc2)CN(CC(=O)O)CC1 [DOTA, S-2-(4-nitrobenzyl)-1,4,7,10-tetraazacyclododecane tetraacetic acid] | 33 | 50
desferrioxamine mesylate salt [DFO] | > 99 | –
